Our source for the T/C and survivor count values is PubChem BioAssay AID256 (DTP/NCI, 2004).

The list does not hold the whole screen: it gathers tests that were run many times, whatever their T/C, doses with no T/C, and many T/C values between a quarter and a half above the control. Further doses and runs are listed elsewhere. T/C: endpoint of the treated group in % of that of the vehicle group. Some doses have a count of surviving animals in place of a T/C: the source files T/C as zero there, which appears to mark a toxic dose or a test without result, not a measured value. Some survivor counts are full or nearly so, which does not show that the dose was tolerated: survival well below the control is almost never listed, so the zero probably covers shortened survival too. Counts of survivors are from the toxicity check (mostly the fifth day) where no day follows; animals may have died later. Schedule codes are those of the source, taken here to give the interval after Q, in days (D) or hours (H), and the number of doses after X. Some doses were run more than once; the values are given in rising order. For survival time, the PubChem record calls one and a half times the control and up active, and a quarter to a half above the control has no call in these data; cut-offs in other NCI protocols can differ. Some T/C values carry the count of animals alive at the toxicity check (mostly the fifth day); without a count, all were alive then.

This experiment relates to CD2F1 mice, L1210 leukemia ip, survival T/C. Kind of experiment: NCI In Vivo Anticancer Drug Screen. Data for tumor model L1210 Leukemia (intraperitoneal) in CD2F1 (CDF1) mice. Particulars: higher T/C = longer survival. An outline of the steps:
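Implant tumor; dose compound or vehicle; measure endpoint in both groups; report treated divided by control.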

Setting [1] is: T/C endpoint: mean survival time, dose: 400.0 mg/kg/injection, schedule: Q04DX002 (ip), vehicle: saline with Tween-80.
Setting [2] is: T/C endpoint: mean survival time, dose: 200.0 mg/kg/injection, schedule: Q01DX009 (ip), vehicle: saline with Tween-80.
The mark [3] stands for this setting: T/C endpoint: mean survival time, dose: 400.0 mg/kg/injection, schedule: Q04DX003 (ip), vehicle: saline with Tween-80.
[4] abbreviates: T/C endpoint: mean survival time, dose: 400.0 mg/kg/injection, schedule: Q01DX009 (ip), vehicle: saline with Tween-80.

With `CCN(CC)CC[n+]1ccc2c(C)c3[nH]c4ccc(O)cc4c3c(C)c2c1`, the T/C was 127 % of control (T/C endpoint: mean survival time, dose: 1.56 mg/kg/injection, schedule: Q01DX009 (ip), vehicle: saline); 125 % of control (T/C endpoint: mean survival time, dose: 1.56 mg/kg/injection, schedule: Q01DX009 (ip), vehicle: suspension in saline); 134 % of control [5 of 6 alive] (T/C endpoint: mean survival time, dose: 3.12 mg/kg/injection, schedule: Q01DX009 (ip), vehicle: saline); 129 % of control (T/C endpoint: mean survival time, dose: 3.12 mg/kg/injection, schedule: Q01DX009 (ip), vehicle: suspension in saline); 138 % of control (T/C endpoint: mean survival time, dose: 6.25 mg/kg/injection, schedule: Q01DX009 (ip), vehicle: saline); 138 % of control (T/C endpoint: mean survival time, dose: 6.25 mg/kg/injection, schedule: Q01DX009 (ip), vehicle: suspension in saline). In addition, the T/C (T/C endpoint: mean survival time, dose: 12.5 mg/kg/injection, schedule: Q01DX009 (ip), vehicle: saline) is 135 % of control and the T/C (T/C endpoint: mean survival time, dose: 25.0 mg/kg/injection, schedule: Q01DX009 (ip), vehicle: saline) was 143 % of control. Besides, the survivor count (T/C endpoint: mean survival time, dose: 50.0 mg/kg/injection, schedule: Q01DX009 (ip), vehicle: suspension in saline) is reported as 4 of 6.
On to `CC(C)c1ccc2c(c1)CC[C@H]1[C@](C)(CN=C(N)CCl)CCC[C@]21C`, for which the survivor count under setting [1] is 3 of 3.
On to `Cn1c(=O)c2c(nc(Br)n2CC(=O)CF)n(C)c1=O`, for which the T/C (T/C endpoint: mean survival time, dose: 50.0 mg/kg/injection, schedule: Q01DX005 (ip), vehicle: distilled water + Tween-80) was 125 % of control. Moreover, the survivor count (T/C endpoint: mean survival time, dose: 400.0 mg/kg/injection, schedule: Q01DX005 (ip), vehicle: distilled water + Tween-80) is listed as 2 of 6.
`O=C1CC(C(=O)O)C2(CCCCCC2)O1` (stereo unspecified): the survivor count (T/C endpoint: median survival time, dose: 100.0 mg/kg/injection, schedule: Q04DX003 (ip), vehicle: saline with Tween-80) was 3 of 3.
As for `CC12CC[C]([Hg][I])(CC1)C2(C)C`, the survivor count is 3 of 3 (T/C endpoint: mean survival time, dose: 50.0 mg/kg/injection, schedule: Q01DX009 (ip), vehicle: saline with Tween-80); 0 of 3 (T/C endpoint: mean survival time, dose: 100.0 mg/kg/injection, schedule: Q01DX009 (ip), vehicle: saline with Tween-80); 0 of 3 under setting [2].
As to `Cc1scc[n+]1Cc1ccccc1[N+](=O)[O-]`, the survivor count was 2 of 6 (T/C endpoint: mean survival time, dose: 100.0 mg/kg/injection, schedule: Q01DX001 (ip), vehicle: saline); 0 of 6 (T/C endpoint: mean survival time, dose: 200.0 mg/kg/injection, schedule: Q01DX001 (ip), vehicle: saline); 0 of 6 (T/C endpoint: mean survival time, dose: 400.0 mg/kg/injection, schedule: Q01DX001 (ip), vehicle: saline).
Take `N#C/C(=C\C1CC(Br)CCC1O)C1CCC([N+](=O)[O-])CC1` (stereo unspecified): the survivor count under setting [2] was 1 of 3.
For `CCCCCCCCCCC[n+]1ccc(C#N)cc1`, under “T/C endpoint: mean survival time, dose: 37.5 mg/kg/injection, schedule: Q01DX001 (ip), vehicle: saline”, the survivor count is recorded as 1 of 6.
For the compound `CCc1nc(N)nc(N)c1-c1ccc(Cl)c(N=[N+]=[N-])c1`, the T/C (T/C endpoint: median survival time, dose: 50.0 mg/kg/injection, schedule: Q01DX009 (ip), vehicle: distilled water + Tween-80) is 130 % of control and the T/C (T/C endpoint: median survival time, dose: 200.0 mg/kg/injection, schedule: Q01DX009 (ip), vehicle: distilled water + Tween-80) is 141 % of control. Also, the survivor count (T/C endpoint: median survival time, dose: 400.0 mg/kg/injection, schedule: Q01DX009 (ip), vehicle: distilled water + Tween-80) is given as 2 of 6.
Turning to `O=C1c2ccccc2C(=O)c2c(NCCN3CCCCC3)ccc(NCCN3CCCCC3)c21`, the survivor count (T/C endpoint: mean survival time, dose: 128.0 mg/kg/injection, schedule: Q01DX009 (ip), vehicle: acid diluted with saline) is recorded as 0 of 6.
For `COC1/C=C/C=C(/C)Cc2cc(O)c(Cl)c(c2)N(C)C(=O)CC(OC(=O)C(C)C)C2(C)OC2C(C)C2CC1(O)NC(=O)O2` (stereo unspecified), the T/C is, setting by setting: (T/C endpoint: mean survival time, dose: 0.25 mg/kg/injection, schedule: Q01DX009 (ip), vehicle: saline + alcohol) 127 % of control; (T/C endpoint: median survival time, dose: 0.25 mg/kg/injection, schedule: Q01DX009 (ip), vehicle: saline + alcohol) 126 % of control. For the same compound, the survivor count (T/C endpoint: mean survival time, dose: 4.0 mg/kg/injection, schedule: Q01DX009 (ip), vehicle: saline + alcohol) is listed as 3 of 6 and the survivor count (T/C endpoint: median survival time, dose: 4.0 mg/kg/injection, schedule: Q01DX009 (ip), vehicle: saline + alcohol) was 10 of 10.
Turning to `N#Cc1c(-c2ccccc2)c(-c2ccccc2)nn(CC(=O)O)c1=O`, for the setting “T/C endpoint: median survival time, dose: 400.0 mg/kg/injection, schedule: Q01DX005 (ip), vehicle: distilled water + Tween-80”, the survivor count was 3 of 6.
`O=C1NC(=O)c2cc(C(F)(F)F)ccc21`: the survivor count is recorded as 1 of 6 (T/C endpoint: mean survival time, dose: 25.0 mg/kg/injection, schedule: Q01DX009 (ip), vehicle: saline with Tween-80); 0 of 6 (T/C endpoint: mean survival time, dose: 50.0 mg/kg/injection, schedule: Q04DX003 (ip), vehicle: saline with Tween-80); 5 of 6 (T/C endpoint: mean survival time, dose: 100.0 mg/kg/injection, schedule: Q04DX003 (ip), vehicle: saline with Tween-80); 0 of 6 (T/C endpoint: mean survival time, dose: 200.0 mg/kg/injection, schedule: Q04DX003 (ip), vehicle: saline with Tween-80); 0 of 6 under setting [3].
Turning to `CCC(C)(O)c1cnc(CC(C)C)c(=O)n1O` (stereo unspecified), the survivor count (T/C endpoint: mean survival time, dose: 300.0 mg/kg/injection, schedule: Q01DX001 (ip), vehicle: saline) is 0 of 6.
Regarding `COC12[C@@H]3N[C@@H]3CN1C1=C(C(=O)C(N(C)CCN(C)C)=C(C)C1=O)[C@@H]2COC(N)=O` (stereo partly specified), under “T/C endpoint: median survival time, dose: 24.0 mg/kg/injection, schedule: Q01DX001 (ip), vehicle: saline”, the T/C is 129 % of control. Moreover, the survivor count (T/C endpoint: median survival time, dose: 48.0 mg/kg/injection, schedule: Q01DX001 (ip), vehicle: saline) is 2 of 6 and 3 of 6.
In the case of `CN(Cc1cnc2nc(N)nc(N)c2n1)c1ccc(C(=O)NC(CCC(=O)NC(CCC(=O)O)C(=O)O)C(=O)O)cc1` (stereo unspecified), the T/C (T/C endpoint: mean survival time, dose: 1.25 mg/kg/injection, schedule: Q01DX009 (ip), vehicle: sodium bicarbonate) was 148 % of control. Moreover, the survivor count runs as follows: (T/C endpoint: mean survival time, dose: 20.0 mg/kg/injection, schedule: Q01DX009 (ip), vehicle: sodium bicarbonate) 5 of 6; (T/C endpoint: mean survival time, dose: 40.0 mg/kg/injection, schedule: Q01DX009 (ip), vehicle: sodium bicarbonate) 3 of 6.
In the case of `CCCOc1cc[n+]([O-])c2ccccc12`, under setting [1], the survivor count is 0 of 3.
With `CS/C([S-])=N/N=C/c1ccccn1.[Cl][Pt+]`, the survivor count under setting [3] was 2 of 6.
For the compound `O=P(O)(O)OP(=O)(O)OCC1OC(n2cnc3c(=S)nc[nH]c32)C(O)C1O` (stereo unspecified), the T/C (T/C endpoint: mean survival time, dose: 100.0 mg/kg/injection, schedule: Q01DX009 (ip), vehicle: saline sonified) was 126 % of control.
For the compound `C/C=C1\OC(n2cnc3c(N)ncnc32)C(O)C1O` (stereo unspecified), for the setting “T/C endpoint: mean survival time, dose: 200.0 mg/kg/injection, schedule: Q01DX005 (ip), vehicle: distilled water + Tween-80”, the T/C is 134 % of control [4 of 6 alive]. For the setting “T/C endpoint: mean survival time, dose: 400.0 mg/kg/injection, schedule: Q01DX009 (ip), vehicle: distilled water + Tween-80”, the survivor count is reported as 0 of 6.
On to `O=C1CCC(=O)O1`, for which the survivor count under setting [4] was 4 of 6.
On to `C=CC[n+]1ccc2ccccc2c1`, for which the survivor count by setting is: (T/C endpoint: mean survival time, dose: 200.0 mg/kg/injection, schedule: Q04DX003 (ip), vehicle: saline sonified) 0 of 6; (T/C endpoint: mean survival time, dose: 400.0 mg/kg/injection, schedule: Q04DX003 (ip), vehicle: saline sonified) 0 of 6.
`O=C(CNC(=O)Nc1cccc([N+](=O)[O-])c1)NNC(=O)Nc1ccc(Cl)c([N+](=O)[O-])c1`: the survivor count under setting [4] is 4 of 6.
For `CCC1(OC(=O)CN2CCN(CCO)CC2)C(=O)OCc2c1cc1n(c2=O)Cc2cc3ccccc3nc2-1` (stereo unspecified), the T/C (T/C endpoint: median survival time, dose: 50.0 mg/kg/injection, schedule: Q04DX002 (ip), vehicle: water) was 138 and 142 % of control.
